Laboratory results published in patent US20240066045A1, “SEMICARBAZONE-BASED SAPONIN CONJUGATE” (priority 2020, published 2024).

Tested on: human red blood cells (RBC)
Experiment: Haemolysis assay
Type: cell-based
Protocol: Red blood cells (RBCs) were isolated from a buffy coat using a Ficoll gradient. The obtained RBC pellet (˜4-5 ml) was washed 2× with 50 ml DPBS (without Ca^2+/Mg^2+, PAN-Biotech GmbH). Cells were pelleted by centrifugation for 10 min, 800×g at RT. RBC were counted and resuspended at 500.000.000 c/ml in DPBS (without Ca^2+/Mg^2+), based on total cell count. SO1861-linker dilutions were prepared in DPBS (with Ca^2+/Mg^2+, PAN-Biotech GmbH), at 1.11× final strength. For positive lysis control a 0.02% Triton-X100 solution was prepared in DPBS^+/+. Of all compound solutions 135 μl was dispensed/well in a 96 well V-bottom plate. To this 15 μl RBC suspension was added and mixed shortly (10 sec—600 rpm). The plate was incubated 30 min at RT, with gentle agitation. Afterwards the plate was spun for 10 min at 800×g to pellet the RBC and 100-120 μl supernatant was transferred to a standard 96 wp. Subsequently, the OD at 405 nm was measured on a Thermo Scientific Multiskan FC plate reader (Thermo Scientific). For quantification the background signal of ‘DPBS^+/+ only’ wells was subtracted from all other wells before the percentage of hemolysis was calculated in comparison to 0.02% Triton-X100, by dividing the background corrected signal of treated wells over the background corrected signal of the 0.02% Triton-X100 wells (×100).

SMILES: CC(=O)O[C@H]1[C@H](O[C@@H]2OC[C@@H](O)[C@H](O)[C@H]2O)[C@@H](O)[C@H](O[C@@H]2[C@H](O)[C@@H](O[C@@H]3O[C@@H](C)[C@H](O[C@@H]4OC[C@@H](O)[C@H](O[C@@H]5O[C@H](CO)[C@@H](O)[C@H](O)[C@H]5O)[C@H]4O)[C@@H](O)[C@H]3O)[C@H](OC(=O)[C@]34CCC(C)(C)C[C@H]3C3=CC[C@@H]5[C@@]6(C)CC[C@H](O[C@@H]7O[C@H](C(=O)O)[C@@H](O)[C@H](O[C@@H]8OC[C@@H](O)[C@H](O)[C@H]8O)[C@H]7O[C@@H]7O[C@H](CO)[C@H](O)[C@H](O)[C@H]7O)[C@@](C)(C=O)[C@@H]6CC[C@@]5(C)[C@]3(C)C[C@H]4O)O[C@@H]2C)O[C@@H]1C [SO1861]
- Ratio: IC50 haemolysis/IC50 activity (activity in A431 cells): 33
- Ratio: IC50 haemolysis/IC50 activity (activity in HeLa cells): 20
